These are yes or no findings as the source states them, for the method shown. Binding seen in cells or lysates may run through a third protein. Here binding means that the protein was enriched with, or labelled near, the bait; the list need not be complete.

Chains of the proteins cited; added tags and fusions are not shown.
UniProt P55884: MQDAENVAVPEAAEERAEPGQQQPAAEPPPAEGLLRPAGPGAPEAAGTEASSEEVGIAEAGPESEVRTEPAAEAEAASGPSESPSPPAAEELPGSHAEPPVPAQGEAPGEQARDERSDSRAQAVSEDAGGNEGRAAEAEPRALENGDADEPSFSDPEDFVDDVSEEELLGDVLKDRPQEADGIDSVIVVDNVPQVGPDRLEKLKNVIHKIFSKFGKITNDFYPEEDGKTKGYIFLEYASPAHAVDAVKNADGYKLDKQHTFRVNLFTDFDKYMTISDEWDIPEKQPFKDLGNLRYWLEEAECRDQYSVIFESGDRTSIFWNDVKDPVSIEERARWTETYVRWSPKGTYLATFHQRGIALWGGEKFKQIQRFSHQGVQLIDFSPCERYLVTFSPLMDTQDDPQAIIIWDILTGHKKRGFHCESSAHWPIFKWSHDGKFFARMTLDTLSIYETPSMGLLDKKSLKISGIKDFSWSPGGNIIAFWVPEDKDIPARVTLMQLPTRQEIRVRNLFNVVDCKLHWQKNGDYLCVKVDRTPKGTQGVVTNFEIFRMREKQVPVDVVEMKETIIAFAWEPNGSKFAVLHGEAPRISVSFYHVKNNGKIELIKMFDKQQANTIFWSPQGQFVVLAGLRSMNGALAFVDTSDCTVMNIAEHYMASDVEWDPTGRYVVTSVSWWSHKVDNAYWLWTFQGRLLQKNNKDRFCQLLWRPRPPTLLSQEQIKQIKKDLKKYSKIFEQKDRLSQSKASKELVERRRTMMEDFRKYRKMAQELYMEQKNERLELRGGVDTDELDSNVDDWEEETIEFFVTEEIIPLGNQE
UniProt O00303: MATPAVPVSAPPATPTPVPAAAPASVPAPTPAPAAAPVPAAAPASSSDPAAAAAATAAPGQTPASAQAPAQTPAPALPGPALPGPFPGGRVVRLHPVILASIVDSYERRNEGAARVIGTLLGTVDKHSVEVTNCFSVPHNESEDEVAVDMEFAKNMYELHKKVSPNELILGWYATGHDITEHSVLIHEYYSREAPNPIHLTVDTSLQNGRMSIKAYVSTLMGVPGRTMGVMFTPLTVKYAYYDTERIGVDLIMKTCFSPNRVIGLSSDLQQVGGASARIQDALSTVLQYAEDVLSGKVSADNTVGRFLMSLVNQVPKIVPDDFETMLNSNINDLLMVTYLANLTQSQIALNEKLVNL
UniProt O15371: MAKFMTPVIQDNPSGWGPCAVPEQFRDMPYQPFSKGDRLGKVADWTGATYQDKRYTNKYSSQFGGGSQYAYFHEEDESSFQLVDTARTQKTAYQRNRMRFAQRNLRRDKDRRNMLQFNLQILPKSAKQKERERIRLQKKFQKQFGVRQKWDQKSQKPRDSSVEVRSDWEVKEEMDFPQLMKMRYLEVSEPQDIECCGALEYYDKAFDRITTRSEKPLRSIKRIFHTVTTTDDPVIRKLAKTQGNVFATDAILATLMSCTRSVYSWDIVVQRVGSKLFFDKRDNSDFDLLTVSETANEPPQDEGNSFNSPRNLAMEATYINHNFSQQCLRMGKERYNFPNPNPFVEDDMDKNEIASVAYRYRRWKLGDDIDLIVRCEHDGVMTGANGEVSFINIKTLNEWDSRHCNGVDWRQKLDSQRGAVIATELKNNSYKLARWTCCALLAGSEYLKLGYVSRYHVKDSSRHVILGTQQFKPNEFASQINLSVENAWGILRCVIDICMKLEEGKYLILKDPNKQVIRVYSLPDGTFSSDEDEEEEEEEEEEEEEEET

This note sets out measurements from publication PMC8758144.

The target in this test is eukaryotic initiation factor 3 subunit EIF3B (human (endogenous in Jurkat)) (UniProt P55884). Description: affinity purification with mass spectrometry; anti-EIF3B antibody (Bethyl A301-761A) on Dynabeads; NP40 lysis buffer lysate of 4-thiouridine-labelled, 365 nm UV-crosslinked Jurkat cells (activated 5 hr with PMA + ionomycin; non-activated control), MNase-treated; Coomassie-stained gel bands matching the phosphorimage excised and identified by one-dimensional LC-MS/MS.

With “eukaryotic initiation factor 3 subunit EIF3F (from UniProt O00303 1-357)”, the binding entry was “binds”.

For “eukaryotic initiation factor 3 subunit EIF3D (from UniProt O15371 1-548)”, the binding entry is “binds”.
